PubChem BioAssay AID1224830, NIAID, 2016
The whole screen tested about 18,000 reagents; below is a part drawn at random. Of all reagents, about 2,900 (16%) are marked active. 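Calls are made per well; low scores hint the gene aids the LPS response, high scores that it dampens it.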 Entries without a mark were called inactive. Repeated entries: four replicate wells of each siRNA pool.

Purpose: 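Genes whose knock-down alters the TNF-alpha reporter response to LPS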 (primary screen)
Cells: human THP-1 monocytic leukaemia cells, TNF dual-luciferase reporter clone, PMA-differentiated to macrophage-like cells
Reagents: siRNA pool against human genes, 50 nM
Time to read-out: LPS for 4 h, given about 3 days after siRNA transfection
Challenge: bacterial LPS (TLR4 ligand), 10 ng/ml
Read-out: 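Ratio of firefly to renilla light, scaled to the plate median and expressed as a robust z-score per replicate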
Scale: TNF reporter robust z-score: higher = stronger TNF reporter response to LPS
Call rule: 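a well is active when its z-score exceeds 2.8 or falls below -1.5; control wells carry no call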

ZBTB2 (zinc finger and BTB domain containing 2) — TNF reporter robust z-score: -0.64
ZBTB2 (zinc finger and BTB domain containing 2) — TNF reporter robust z-score: -0.94
ZBTB2 (zinc finger and BTB domain containing 2) — TNF reporter robust z-score: -1.03
ZBTB2 (zinc finger and BTB domain containing 2) — TNF reporter robust z-score: 2.23
PRB4 (proline rich protein BstNI subfamily 4) — TNF reporter robust z-score: 0.8
PRB4 (proline rich protein BstNI subfamily 4) — TNF reporter robust z-score: 1.89
PRB4 (proline rich protein BstNI subfamily 4) — TNF reporter robust z-score: 0.2
PRB4 (proline rich protein BstNI subfamily 4) — TNF reporter robust z-score: 0.57
NHLH2 (nescient helix-loop-helix 2) — TNF reporter robust z-score: -1.42
NHLH2 (nescient helix-loop-helix 2) — TNF reporter robust z-score: -1.58 (active)
NHLH2 (nescient helix-loop-helix 2) — TNF reporter robust z-score: -1.45
COX7B2 (cytochrome c oxidase subunit 7B2) — TNF reporter robust z-score: 0.55
COX7B2 (cytochrome c oxidase subunit 7B2) — TNF reporter robust z-score: -0.03
COX7B2 (cytochrome c oxidase subunit 7B2) — TNF reporter robust z-score: 0.32
COX7B2 (cytochrome c oxidase subunit 7B2) — TNF reporter robust z-score: 0.45
RNF19A (ring finger protein 19A, RBR E3 ubiquitin protein ligase) — TNF reporter robust z-score: -0.48
RNF19A (ring finger protein 19A, RBR E3 ubiquitin protein ligase) — TNF reporter robust z-score: -0.23
RNF19A (ring finger protein 19A, RBR E3 ubiquitin protein ligase) — TNF reporter robust z-score: -1.56 (active)
RNF19A (ring finger protein 19A, RBR E3 ubiquitin protein ligase) — TNF reporter robust z-score: -0.5
KRTAP1-3 (keratin associated protein 1-3) — TNF reporter robust z-score: -0.67
KRTAP1-3 (keratin associated protein 1-3) — TNF reporter robust z-score: 0.42
KRTAP1-3 (keratin associated protein 1-3) — TNF reporter robust z-score: -0.32
KRTAP1-3 (keratin associated protein 1-3) — TNF reporter robust z-score: -0.05
ERCC5 (ERCC excision repair 5, endonuclease) — TNF reporter robust z-score: 0.51
ERCC5 (ERCC excision repair 5, endonuclease) — TNF reporter robust z-score: 1.84
ERCC5 (ERCC excision repair 5, endonuclease) — TNF reporter robust z-score: 0.74
ERCC5 (ERCC excision repair 5, endonuclease) — TNF reporter robust z-score: 1.75
KANSL1 (KAT8 regulatory NSL complex subunit 1) — TNF reporter robust z-score: 0.34
KANSL1 (KAT8 regulatory NSL complex subunit 1) — TNF reporter robust z-score: -0.88
KANSL1 (KAT8 regulatory NSL complex subunit 1) — TNF reporter robust z-score: -0.46
KANSL1 (KAT8 regulatory NSL complex subunit 1) — TNF reporter robust z-score: -0.87

Continued (2 carried over from the part before).
KANSL1 (KAT8 regulatory NSL complex subunit 1) — TNF reporter robust z-score: -0.46
KANSL1 (KAT8 regulatory NSL complex subunit 1) — TNF reporter robust z-score: -0.87
CYGB (cytoglobin) — TNF reporter robust z-score: -0.15
CYGB (cytoglobin) — TNF reporter robust z-score: 0.29
CYGB (cytoglobin) — TNF reporter robust z-score: -0.45
CYGB (cytoglobin) — TNF reporter robust z-score: -0.44
SLC26A9 — TNF reporter robust z-score: -1.22
SLC26A9 — TNF reporter robust z-score: -1.83 (active)
SLC26A9 — TNF reporter robust z-score: -1.66 (active)
SLC26A9 — TNF reporter robust z-score: -1.36
EIF4ENIF1 — TNF reporter robust z-score: -1.29
EIF4ENIF1 — TNF reporter robust z-score: -0.31
EIF4ENIF1 — TNF reporter robust z-score: -0.81
EIF4ENIF1 — TNF reporter robust z-score: -0.69
GDI1 (GDP dissociation inhibitor 1) — TNF reporter robust z-score: -0.24
GDI1 (GDP dissociation inhibitor 1) — TNF reporter robust z-score: -0.15
GDI1 (GDP dissociation inhibitor 1) — TNF reporter robust z-score: 0.27
GDI1 (GDP dissociation inhibitor 1) — TNF reporter robust z-score: 0.76
